Measurements as given in article PMC6317822, “RSM1, an Arabidopsis MYB protein, interacts with HY5/HYH to modulate seed germination and seedling development in response to abscisic acid and salinity” (PLoS Genetics, 2018).
The exact form of at least one protein or probe is not confirmed. Tags and fusion partners may be left off the protein sequences shown.

Biological target: T1, GST-HY5 (Arabidopsis thaliana) (UniProt O24646)
T1 sequence (looked up): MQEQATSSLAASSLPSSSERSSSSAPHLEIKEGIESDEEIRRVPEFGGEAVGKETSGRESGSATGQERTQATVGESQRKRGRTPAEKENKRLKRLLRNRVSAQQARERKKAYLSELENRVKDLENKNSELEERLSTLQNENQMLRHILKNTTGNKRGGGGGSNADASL
Experiment: EMSA
Conditions: plus increasing His-RSM1: binding enhanced; EMSA: 2 ug protein in 20 uL, 10 mM Tris-HCl pH 7.5, 50 mM KCl, 1 mM DTT, 50 ng/uL poly(dI-dC), 25 C, 20 min; 4-6% native PAGE, 0.5x TBE; recombinant protein; residues 1-168; protein details: GST (pGEX-4T-1 in Methods, pGEX-6P-1 in S7 Table); label: biotin 5' on both strands

**Q.** Does “CCTTATGCAGTGAATAGTCCACGTGCACTCCCAATGGAAGTTCGGAATC (double strand) [ABI5 promoter probe (HY5 site)]” bind?
**A.** Result: binds
